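Assay of Toxoplasma gondii numbers, read through their beta-galactosidase reporter with a colour substrate. Tested at 50 µM. The record gives no direction; the compounds picked for IC50 retests had high values, so higher reads as fewer parasites. About 18,000 compounds were tested under these conditions; 0.94% (about 170) showed 50% or more at least once.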

Values are the deposited “Percent Effect”, in %.
The record does not define 0% and 100%; most values in the screen are far below 50% and negative numbers occur (in some assays of this library far below -100).
The compounds are a random part of those screened.

{"compound": "COCc1cc(CNCC2(O)CNCCOC2)n[nH]1", "stereo": "stereo not given", "percent effect": -9.914}
{"compound": "CCOC(=O)Cn1nc(C)c(CN)c1C", "percent effect": -8.486}
{"compound": "Nc1cnccc1N1CCCC1", "percent effect": 14}
{"compound": "OCCN1CCN(Cc2nc(C3CC3)no2)CC1", "percent effect": 3.73}
{"compound": "CCn1c(SCC(N)=O)nnc1-c1cc(Br)cs1", "percent effect": -12.52}
{"compound": "CC(C)[C@H](N)C(=O)N1CCN(c2ccncc2Cl)CC1", "percent effect": 14.26}
{"compound": "Cc1csc(N2CCCNCC2)n1", "percent effect": -2.744}
{"compound": "NC(=O)CN1CCN(C/C=C/c2ccccc2)CC1", "percent effect": -8.922}
{"compound": "Cc1ccc(S(=O)(=O)NCC(C)N)cc1Cl", "stereo": "stereo not given", "percent effect": 31.72}
{"compound": "O=C(CN1CCC(CO)CC1)NCCc1cccs1", "percent effect": 12.29}
{"compound": "Cc1ccoc1C(=O)N(C)C1CCN(C)CC1", "percent effect": -4.706}
{"compound": "CCCN1CCN(C(=O)c2c(F)cccc2F)CC1", "percent effect": 2.36}
{"compound": "Cc1cc(Cl)cnc1C#N", "percent effect": -21.45}
{"compound": "CN1CCC(NC(=O)COc2ccc(C#N)cc2)CC1", "percent effect": 0.7143}
{"compound": "COc1ccc2c(c1)C=C(S(N)(=O)=O)CC2", "percent effect": -2.759}
{"compound": "CCC=C(C)C(=O)NCC(=O)N1CCCC1", "percent effect": -0.2846}
{"compound": "CCC(N)C(=O)Nc1ccc2c(c1)C(=O)CCC2", "stereo": "stereo not given", "percent effect": 3.105}
{"compound": "CC(=O)NCC(=O)NCCc1ccc(O)cc1", "percent effect": 0.4871}
{"compound": "Cc1nocc1C(C)O", "stereo": "stereo not given", "percent effect": 18.57}
{"compound": "N#CCCNC(=O)CSc1ccccc1F", "percent effect": 3.053}
{"compound": "CCOc1ccc(S(=O)(=O)NC2CC2)cc1C(N)=O", "percent effect": -0.5971}
{"compound": "O=C(Cn1cncn1)Nc1cccc(F)c1", "percent effect": -3.819}
{"compound": "CC(=O)C(O)c1cccc(Cl)c1", "stereo": "stereo not given", "percent effect": 2.245}
{"compound": "COc1ccc(CCC(=O)N2CCCNCC2)cc1", "percent effect": 3.625}
{"compound": "COCCN1CCC(CN)CC1", "percent effect": 4.188}
{"compound": "O=C(c1cncc(-c2cn[nH]c2)n1)N1CCCCC1", "percent effect": 7.07}
{"compound": "CCC(C)(C)NCc1nnnn1C1CC1", "percent effect": -4.163}
{"compound": "COC(=O)CN1CCCC1=O", "percent effect": -18.85}
{"compound": "COC(C)(CNC(=O)[C@H]1CCCO1)C1CC1", "stereo": "stereo not given in full", "percent effect": 3.399}
{"compound": "CC(=O)NCC1(O)CCCC1", "percent effect": 22.57}
{"compound": "CCC(C)c1cc(C(=O)Nc2ncccc2O)on1", "stereo": "stereo not given", "percent effect": 9.31}
{"compound": "Cn1ccc(NC(=O)CN2CCS(=O)(=O)CC2)n1", "percent effect": 7.149}
{"compound": "N#Cc1cccc(OCCSc2nnc[nH]2)c1", "percent effect": 2.629}
{"compound": "O=C(c1cccc2ncccc12)N1CCCC1", "percent effect": 14.39}
{"compound": "CCC[C@H]1CN(C(=O)CCn2cnnn2)C[C@@H]1N", "percent effect": -21.63}
{"compound": "CC(C)CC(NCCS(C)(=O)=O)c1ccccn1", "stereo": "stereo not given", "percent effect": -4.248}
{"compound": "C/C=C/c1ccc(OCCNC)c(OC)c1", "percent effect": 16.82}
{"compound": "CC1CN(C)CCN1CC(=O)NCc1cccs1", "stereo": "stereo not given", "percent effect": -2.197}
{"compound": "C[C@@H]1CNC(=O)C[C@H](C)O1", "percent effect": 3.621}
{"compound": "CC(C)(C)OC(=O)N1CCC(CN)C(F)(F)C1", "stereo": "stereo not given", "percent effect": -34.54}
{"compound": "Cn1nccc1C(=O)Nc1cnccc1O", "percent effect": 0.4871}
{"compound": "Cc1nn(C)cc1S(=O)(=O)NCc1cccnc1", "percent effect": -13.67}

The first 5 entries again:

{"compound": "COCc1cc(CNCC2(O)CNCCOC2)n[nH]1", "stereo": "stereo not given", "percent effect": -9.914}
{"compound": "CCOC(=O)Cn1nc(C)c(CN)c1C", "percent effect": -8.486}
{"compound": "Nc1cnccc1N1CCCC1", "percent effect": 14}
{"compound": "OCCN1CCN(Cc2nc(C3CC3)no2)CC1", "percent effect": 3.73}
{"compound": "CCn1c(SCC(N)=O)nnc1-c1cc(Br)cs1", "percent effect": -12.52}

From ChEMBL document CHEMBL3988442, “University of Dundee, Small-Polar-MMV Screening Library” (2021).